Test results published in PubChem BioAssay AID328 (DTP/NCI, 2004).
The list is a part of this screen's results and no random one: it gathers tests that were run many times, whatever their T/C, doses with no T/C, and many T/C values between a quarter and a half above the control. Further doses and runs are listed elsewhere. T/C gives the treated animals as a percentage of the vehicle group. Some doses have a count of surviving animals in place of a T/C: the source holds a T/C of zero for them, seemingly a mark for toxic or unscored doses. Some doses without a T/C left all or most animals alive at the check, yet need not have been tolerated: the source hardly ever lists a survival T/C far under the control, and the zero likely stands for such cases as well. Counts of survivors are from the toxicity check (mostly the fifth day) where no day follows; animals may have died later. Schedule codes are those of the source, taken here to give the interval after Q, in days (D) or hours (H), and the number of doses after X. Some doses were run more than once; the results are listed from low to high. For survival time, the PubChem record calls one and a half times the control and up active, and a quarter to a half above the control has no call in these data; cut-offs in other NCI protocols can differ. Some T/C values are followed by the survivors on the day toxicity was checked, most often the fifth; without a count, all were alive then.

Tested on: BDF1 mice, P388 leukemia ip, median survival T/C
Experiment: NCI In Vivo Anticancer Drug Screen. Data for tumor model P388 Leukemia (intraperitoneal) in B6D2F1 (BDF1) mice
Settings: T/C endpoint: median survival time, higher T/C = longer survival
How it was run: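 Compound-treated tumour-bearing mice were compared with vehicle-treated controls. Survival was recorded, and the value is the treated-group measurement divided by the control-group measurement (T/C).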

[1] = dose: 100.0 mg/kg/injection, schedule: Q01DX009 (ip), vehicle: saline
[2] = dose: 200.0 mg/kg/injection, schedule: Q01DX009 (ip), vehicle: saline
[3] = dose: 400.0 mg/kg/injection, schedule: Q01DX009 (ip), vehicle: Klucel (hydroxypropylcellulose) (HPC)
[4] = dose: 200.0 mg/kg/injection, schedule: Q01DX009 (ip), vehicle: saline with Tween-80
[5] = dose: 12.5 mg/kg/injection, schedule: Q01DX009 (ip), vehicle: Klucel (hydroxypropylcellulose) (HPC)
[6] = dose: 25.0 mg/kg/injection, schedule: Q01DX009 (ip), vehicle: Klucel (hydroxypropylcellulose) (HPC)
[7] = dose: 50.0 mg/kg/injection, schedule: Q01DX009 (ip), vehicle: Klucel (hydroxypropylcellulose) (HPC)
[8] = dose: 100.0 mg/kg/injection, schedule: Q01DX009 (ip), vehicle: Klucel (hydroxypropylcellulose) (HPC)
[9] = dose: 200.0 mg/kg/injection, schedule: Q04DX003 (ip), vehicle: saline with Tween-80
[10] = dose: 12.5 mg/kg/injection, schedule: Q01DX009 (ip), vehicle: water
[11] = dose: 200.0 mg/kg/injection, schedule: Q04DX003 (ip), vehicle: saline

## OCCNCCNCC[OH2+].OCCNCCNCC[OH2+].[Ni+2].[O-][Cl+3]([O-])([O-])[O-]
[1]
  survivor count: 4 of 6
[2]
  survivor count: 0 of 6

## CCCNC(=O)OCc1c(COC(=O)NCCC)c(-c2ccc(Cl)c(Cl)c2)n2c1CCC2
dose: 12.5 mg/kg/injection, schedule: Q01DX009 (ip), vehicle: other
  T/C: 133 % of control
dose: 100.0 mg/kg/injection, schedule: Q01DX009 (ip), vehicle: other
  survivor count: 5 of 6
dose: 200.0 mg/kg/injection, schedule: Q01DX009 (ip), vehicle: other
  survivor count: 0 of 6

## CCCCOCCN1CCN(CCCN2c3ccccc3Sc3ccc(C(F)(F)F)cc32)CC1
dose: 12.5 mg/kg/injection, schedule: Q04DX003 (ip), vehicle: saline
  T/C: 132 % of control
dose: 25.0 mg/kg/injection, schedule: Q04DX003 (ip), vehicle: saline
  T/C: 139 % of control
dose: 50.0 mg/kg/injection, schedule: Q04DX003 (ip), vehicle: saline
  T/C: 129 % of control

## CC=C=CCN(C)Cc1ccccc1
[1]
  survivor count: 0 of 6
[2]
  survivor count: 0 of 6

## CC1(C(=O)N2CC2)OC1c1ccccc1 (stereo unspecified)
dose: 200.0 mg/kg/injection, schedule: Q04DX002 (ip), vehicle: saline with Tween-80
  survivor count: 6 of 6
dose: 400.0 mg/kg/injection, schedule: Q04DX002 (ip), vehicle: saline with Tween-80
  survivor count: 3 of 6

## C=C1C(=O)OC(C)(C)C1(C)C
[1]
  survivor count: 3 of 6
[2]
  survivor count: 0 of 6

## [N-]=[N+]=[N-]
dose: 10.0 mg/kg/injection, schedule: Q01DX009 (ip), vehicle: saline
  survivor count: 4 of 6
dose: 20.0 mg/kg/injection, schedule: Q04DX003 (ip), vehicle: saline
  survivor count: 6 of 6

## O=C(c1ccccc1)c1c2ccccc2c(C(=O)c2ccccc2)c2ccccc12
[3]
  survivor count: 4 of 6

## O=C(O)CCNSc1ccccc1[N+](=O)[O-]
[4]
  survivor count: 2 of 6

## NC1=NC(=S)C2N=C(N=Nc3ccc(C(=O)NC(CCC(=O)O)C(=O)O)cc3)N=C2N1 (stereo unspecified)
[5]
  survivor count: 6 of 6
[6]
  survivor count: 6 of 6
[7]
  survivor count: 6 of 6
dose: 100.0 mg/kg/injection, schedule: Q04DX003 (ip), vehicle: Klucel (hydroxypropylcellulose) (HPC)
  survivor count: 6 of 6

## CCc1ccc(/C=C/c2ccc(O)c3ncccc23)[n+](C)c1
dose: 1.1 mg/kg/injection, schedule: Q01DX009 (ip), vehicle: Klucel (hydroxypropylcellulose) (HPC)
  T/C: 137 % of control
dose: 2.7 mg/kg/injection, schedule: Q01DX009 (ip), vehicle: Klucel (hydroxypropylcellulose) (HPC)
  T/C: 136 % of control
dose: 4.0 mg/kg/injection, schedule: Q01DX009 (ip), vehicle: Klucel (hydroxypropylcellulose) (HPC)
  T/C: 130 % of control
dose: 4.0 mg/kg/injection, schedule: Q01DX009 (ip), vehicle: saline with Tween-80
  T/C: 137 % of control
dose: 6.25 mg/kg/injection, schedule: Q01DX009 (ip), vehicle: Klucel (hydroxypropylcellulose) (HPC)
  T/C: 129 % of control
dose: 10.56 mg/kg/injection, schedule: Q01DX009 (ip), vehicle: saline with Tween-80
  T/C: 145 % of control [5 of 6 alive]
[5]
  T/C: 133 % of control
dose: 16.0 mg/kg/injection, schedule: Q01DX009 (ip), vehicle: saline with Tween-80
  T/C: 141 % of control
dose: 16.0 mg/kg/injection, schedule: Q04DX003 (ip), vehicle: saline
  T/C: 136 % of control
dose: 24.0 mg/kg/injection, schedule: Q01DX009 (ip), vehicle: saline with Tween-80
  survivor count: 2 of 6
[6]
  T/C: 133 % of control
dose: 32.0 mg/kg/injection, schedule: Q01DX009 (ip), vehicle: Klucel (hydroxypropylcellulose) (HPC)
  survivor count: 2 of 6
dose: 32.0 mg/kg/injection, schedule: Q04DX003 (ip), vehicle: saline
  T/C: 131 % of control
dose: 37.5 mg/kg/injection, schedule: Q01DX009 (ip), vehicle: Klucel (hydroxypropylcellulose) (HPC)
  survivor count: 1 of 6 and 2 of 6
dose: 45.0 mg/kg/injection, schedule: Q01DX009 (ip), vehicle: saline
  survivor count: 0 of 6
dose: 45.0 mg/kg/injection, schedule: Q04DX003 (ip), vehicle: saline
  survivor count: 5 of 6
dose: 70.0 mg/kg/injection, schedule: Q01DX009 (ip), vehicle: saline
  survivor count: 0 of 6
dose: 70.0 mg/kg/injection, schedule: Q04DX003 (ip), vehicle: saline
  survivor count: 0 of 6
dose: 105.0 mg/kg/injection, schedule: Q01DX009 (ip), vehicle: saline
  survivor count: 0 of 6
dose: 105.0 mg/kg/injection, schedule: Q04DX003 (ip), vehicle: saline
  survivor count: 0 of 6

## C[C@]12CC[C@H](O)C=C1CC[C@@H]1[C@@H]2CC[C@]2(C)C(c3ccc(=O)oc3)CC[C@]12O (stereo partly specified)
[6]
  survivor count: 3 of 6
[7]
  survivor count: 0 of 6

## CCOC(=O)c1cc(/C=C/c2ccccc2)[nH]c(=O)c1C#N
[8]
  survivor count: 6 of 6
[3]
  survivor count: 6 of 6

## Cc1c(C)c(O)c2c(c1O)C(=O)C=C(Cl)C2=O
dose: 50.0 mg/kg/injection, schedule: Q04DX003 (ip), vehicle: saline with Tween-80
  survivor count: 0 of 6
dose: 100.0 mg/kg/injection, schedule: Q04DX003 (ip), vehicle: saline with Tween-80
  survivor count: 2 of 6
[9]
  survivor count: 0 of 6
dose: 400.0 mg/kg/injection, schedule: Q04DX003 (ip), vehicle: saline with Tween-80
  survivor count: 0 of 6

## FC(F)(F)c1nnn[n-]1.[Au+].c1ccc([PH+](c2ccccc2)c2ccccc2)cc1
dose: 100.0 mg/kg/injection, schedule: Q01DX001 (ip), vehicle: saline with Tween-80
  survivor count: 0 of 6

## C[S+](C)Cc1ccc(C(=O)Oc2ccc([N+](=O)[O-])cc2)cc1
[2]
  survivor count: 5 of 6

## COc1ccc(/C=C/C(=O)c2ccc(OC)c(OCc3ccccc3)c2)cc1OC
[10]
  survivor count: 6 of 6
dose: 400.0 mg/kg/injection, schedule: Q01DX009 (ip), vehicle: water
  T/C: 128 % of control

## Cc1cc2nc3n(c2cc1C)C(C)(C)N=C(N)N3
[4]
  survivor count: 1 of 6

## O=C(NCCCCOc1ccc([N+](=O)[O-])cc1Cl)c1ccc(S(=O)(=O)F)cc1
[9]
  survivor count: 4 of 6

## COC(=O)N(CCCl)N=O
dose: 20.0 mg/kg/injection, schedule: Q01DX001 (ip), vehicle: saline with Tween-80
  survivor count: 5 of 6

## CN(C)c1ccc(N=C2C=CC(=O)C=C2)cc1
dose: 25.0 mg/kg/injection, schedule: Q01DX009 (ip), vehicle: saline with Tween-80
  survivor count: 0 of 6
dose: 50.0 mg/kg/injection, schedule: Q01DX009 (ip), vehicle: saline with Tween-80
  survivor count: 0 of 6
dose: 100.0 mg/kg/injection, schedule: Q01DX009 (ip), vehicle: saline with Tween-80
  survivor count: 0 of 6
[4]
  survivor count: 0 of 6

## CN(C)CCCN1c2ccccc2Sc2ccc(F)cc21
dose: 50.0 mg/kg/injection, schedule: Q01DX009 (ip), vehicle: saline
  T/C: 136 % of control
dose: 100.0 mg/kg/injection, schedule: Q04DX003 (ip), vehicle: saline
  survivor count: 2 of 6
[11]
  survivor count: 1 of 6

## CCN(CC)Cc1c(C)[nH]c2ccc(N(C)C)cc2c1=O
dose: 0.78 mg/kg/injection, schedule: Q01DX009 (ip), vehicle: water
  survivor count: 6 of 6
dose: 6.25 mg/kg/injection, schedule: Q01DX009 (ip), vehicle: water
  T/C: 129 % of control
[10]
  survivor count: 6 of 6
dose: 25.0 mg/kg/injection, schedule: Q01DX009 (ip), vehicle: water
  survivor count: 6 of 6
[8]
  survivor count: 6 of 6
[11]
  survivor count: 5 of 6
dose: 400.0 mg/kg/injection, schedule: Q04DX003 (ip), vehicle: saline
  survivor count: 2 of 6
